These are yes or no findings as the source states them, for the method shown. Some results given as binding are weak or reduced against the parent protein; the word gives no strength. Values belong to the binder of their own block, whether it stands above or below them.
Legend:
[1] = target: T1, IFN-λR1 (human) (UniProt Q8IU57); assay: yeast surface display, flow cytometry
T1 sequence (looked up): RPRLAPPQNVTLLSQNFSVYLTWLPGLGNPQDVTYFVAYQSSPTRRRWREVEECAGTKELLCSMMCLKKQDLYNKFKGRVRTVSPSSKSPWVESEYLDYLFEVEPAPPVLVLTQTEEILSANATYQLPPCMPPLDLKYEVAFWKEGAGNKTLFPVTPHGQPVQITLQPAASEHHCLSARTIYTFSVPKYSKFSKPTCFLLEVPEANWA

[2] = target: T2, wild-type IFN-λ3 (human) (UniProt Q8IZI9); assay: flow cytometry of yeast-displayed wild-type IFN-λ3 stained with 50 nM streptavidin tetramers of IFN-λR1 (FL2, y-axis); IL-10Rβ monomer or tetramers also present
T2 sequence: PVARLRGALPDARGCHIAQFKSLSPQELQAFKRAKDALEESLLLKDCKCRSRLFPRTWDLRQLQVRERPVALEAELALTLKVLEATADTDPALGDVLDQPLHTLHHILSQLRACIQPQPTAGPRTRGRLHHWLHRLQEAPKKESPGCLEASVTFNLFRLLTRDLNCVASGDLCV

- binding [1]: binds
B1: wild-type IFN-λ3 (ligand)
chain: T2 sequence

- binding [2]: binds
B2: IFN-λR1 streptavidin tetramers (receptor, human, UniProt Q8IU57 21-228, looked up)
receptor chain presented on streptavidin: T1 sequence (looked up)

From patent publication US20190225665A1
